Binding data for 1 substance are collected here from paper doi:10.1101/2021.01.20.427402.

Amino acid sequences for entries named in this document (tags omitted).
UniProt P35637: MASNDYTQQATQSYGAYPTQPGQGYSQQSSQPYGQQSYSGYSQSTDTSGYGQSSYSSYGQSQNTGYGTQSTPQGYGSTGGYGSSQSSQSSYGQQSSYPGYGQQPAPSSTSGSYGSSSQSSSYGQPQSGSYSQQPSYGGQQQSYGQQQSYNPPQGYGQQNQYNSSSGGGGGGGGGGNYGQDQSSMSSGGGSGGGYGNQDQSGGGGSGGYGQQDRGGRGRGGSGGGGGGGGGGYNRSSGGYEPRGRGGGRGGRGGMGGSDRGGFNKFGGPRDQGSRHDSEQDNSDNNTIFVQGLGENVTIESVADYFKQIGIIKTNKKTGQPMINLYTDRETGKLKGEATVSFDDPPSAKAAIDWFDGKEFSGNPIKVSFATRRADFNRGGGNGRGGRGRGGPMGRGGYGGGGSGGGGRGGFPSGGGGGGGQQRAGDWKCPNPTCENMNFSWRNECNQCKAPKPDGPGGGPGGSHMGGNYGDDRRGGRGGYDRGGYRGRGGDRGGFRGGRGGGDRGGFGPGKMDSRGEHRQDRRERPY

Read-outs that look alike come from different tables or passages of the source. Results are given in words; binding and its absence hold for the method and conditions named. In cells and extracts the contact can be indirect. Some entries that bind do so weakly or less than the wild type. Where a sequence is shown, tags or fusion partners need not be part of it.

Assay [1] addresses T1, GFP-Zαβ^DAI fusion (amino-terminal region of human DAI, residues Ala2-Tyr165, with N-terminal LAP-tag) (human) (UniProt Q9H171).
T1 sequence: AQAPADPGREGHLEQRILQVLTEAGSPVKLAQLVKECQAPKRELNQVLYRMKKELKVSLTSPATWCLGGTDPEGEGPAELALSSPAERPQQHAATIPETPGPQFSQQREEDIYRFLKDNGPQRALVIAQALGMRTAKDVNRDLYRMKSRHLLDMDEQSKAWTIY
As to the kind of experiment: co-IP.

The target of assay [2] is T1, GFP-Zαβ^DAI fusion (amino-terminal region of human DAI, residues Ala2-Tyr165, with N-terminal LAP-tag) (human). As to the kind of experiment: co-IP. This is another data set of the same source.

As for FUS (from UniProt P35637 1-526), the binding result in assay [1] and in assay [2] was “binds” each time.
